From PubChem BioAssay AID850 (SRMLSC, 2007) come the findings set out here.

The entries are a selection whose mix differs from that of the whole data set. The source made the active and inactive calls. No rule for the calls is given here. Bounds are passed on as bounds.

Test [1] relates to Saccharomyces cerevisiae growth inhibition, permissive control. The test is described as follows: yeast lifespan-shortening chemical project counter-assay, dose-response inhibition of growth under permissive conditions (AID 850).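 Also: growth read as optical density after one day of incubation.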
Test in test [2]: as above
As to conditions: Saccharomyces cerevisiae growth inhibition, permissive control; measured here: maximum growth inhibition; at 50 µM; stronger effect = higher value.

As to `Cc1ccc(-c2cc(C(=O)N3N=C(C(F)F)CC3(O)C(F)F)c3ccccc3n2)cc1C` (configuration not stated), the IC50 in test [1] was inactive: > 100 µM. In addition, the inhibition in test [2] came to 17.5%.
